One substance from publication PMC4863248 can be followed below.

The target in the assay is T1, cMyc-Rv0247c (putative succinate dehydrogenase subunit B1) (Mycobacterium tuberculosis) (UniProt O53669).
T1 sequence: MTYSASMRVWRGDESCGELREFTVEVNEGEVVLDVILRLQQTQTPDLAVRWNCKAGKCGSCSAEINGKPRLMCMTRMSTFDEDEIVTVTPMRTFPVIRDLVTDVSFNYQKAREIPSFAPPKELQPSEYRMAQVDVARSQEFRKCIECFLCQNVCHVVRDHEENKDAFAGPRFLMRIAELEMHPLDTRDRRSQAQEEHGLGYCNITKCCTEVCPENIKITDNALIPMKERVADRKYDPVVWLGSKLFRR
In words: co-IP.

These are yes or no findings as the source states them, for the method shown. Binding seen in cells or lysates may run through a third protein. Sequences can lack the tags named with a protein.

native YidC of M. smegmatis: the binding entry is listed as “no binding”.
